Data source: PubChem BioAssay AID504764 (Drosophila RNAi Screening Center, 2011)
The deposit covers about 22,000 reagents; below is a random part of those that have a named target and a result. In the full data, 403 (1.9%) were called active. 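Unnormalised raw counts per well; ratio z-scores behind the hit calls and whether each hit raises or lowers signal are not deposited.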 The record does not give: the amount of reagent.

- Assay: 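Knock-downs that raise or lower a Notch target reporter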 (primary screen)
- Cell system: Drosophila Kc167 cells
- Reagents: long dsRNA against Drosophila genes
- Timing: about 5 days (4 days dsRNA, then 24 h after transfection)
- Challenge: transfection of constitutively active membrane-tethered Notch lacking the extracellular domain, read 24 h later
- Measured: 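Firefly luciferase from an E(spl)m3 reporter with active Notch, plus control-promoter and uninduced reporter wells for normalisation; unnormalised counts, duplicate wells a and b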
- Scale: induced reporter light, run 1, well a and induced reporter light, run 1, well b: higher = more light from the Notch target reporter with active Notch; control promoter light, run 1, well a and control promoter light, run 1, well b: higher = more light from the viral control promoter (cell number, transfection, viability); uninduced reporter light, run 1, well a: higher = more light from the Notch target reporter without active Notch
- Call rule: 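Hit if the duplicate-averaged log2 ratio of induced to control-promoter light gives a plate-wise z beyond ±2, or induced to uninduced beyond ±1.8; weak-control or discordant-duplicate wells dropped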
- Calls: active = modifier hit (raised or lowered Notch signal); inactive = not a hit

How did the screen score BtbVII (BTB-protein-VII) [DRSC08151]?
induced reporter light, run 1, well a: 51565; induced reporter light, run 1, well b: 30195; control promoter light, run 1, well a: 82040; control promoter light, run 1, well b: 91455; uninduced reporter light, run 1, well a: 6040; call: inactive

With BtbVII (BTB-protein-VII) [DRSC08415], how do the results read?
induced reporter light, run 1, well a: 1.18e5; induced reporter light, run 1, well b: 1.66e5; control promoter light, run 1, well a: 1.26e5; control promoter light, run 1, well b: 91485; uninduced reporter light, run 1, well a: 12192; call: inactive

How did the screen score CadN (Cadherin-N) [DRSC03286]?
induced reporter light, run 1, well a: 1.32e5; induced reporter light, run 1, well b: 1.56e5; control promoter light, run 1, well a: 1.29e5; control promoter light, run 1, well b: 1.60e5; uninduced reporter light, run 1, well a: 10620; call: inactive

With CG18063 [DRSC01968], what was measured?
induced reporter light, run 1, well a: 1.42e5; induced reporter light, run 1, well b: 1.47e5; control promoter light, run 1, well a: 1.72e5; control promoter light, run 1, well b: 2.07e5; uninduced reporter light, run 1, well a: 12590; call: inactive

For Gfat2 (Glutamine:fructose-6-phosphate aminotransferase 2) [DRSC14598], how do the results read?
induced reporter light, run 1, well a: 1.62e5; induced reporter light, run 1, well b: 1.51e5; control promoter light, run 1, well a: 2.12e5; control promoter light, run 1, well b: 2.09e5; uninduced reporter light, run 1, well a: 13000; call: inactive

Which result is listed for l(2)gd1 (lethal (2) giant discs 1) [DRSC02773]?
induced reporter light, run 1, well a: 2.38e5; induced reporter light, run 1, well b: 2.49e5; control promoter light, run 1, well a: 1.81e5; control promoter light, run 1, well b: 1.93e5; uninduced reporter light, run 1, well a: 15145; call: inactive

How did the screen score Atg18a (Autophagy-related 18a) [DRSC10943]?
induced reporter light, run 1, well a: 1.26e5; induced reporter light, run 1, well b: 1.47e5; control promoter light, run 1, well a: 93250; control promoter light, run 1, well b: 56310; uninduced reporter light, run 1, well a: 9035; call: inactive

How did the screen score Ac13E (Adenylyl cyclase 13E) [DRSC19325]?
induced reporter light, run 1, well a: 1.00e5; induced reporter light, run 1, well b: 1.08e5; control promoter light, run 1, well a: 1.49e5; control promoter light, run 1, well b: 1.33e5; uninduced reporter light, run 1, well a: 17270; call: inactive

Which result is listed for CG32971 [DRSC01372]?
induced reporter light, run 1, well a: 1.07e5; induced reporter light, run 1, well b: 87440; control promoter light, run 1, well a: 87590; control promoter light, run 1, well b: 1.05e5; uninduced reporter light, run 1, well a: 8200; call: inactive

Which result is listed for mfrn (mitoferrin) [DRSC15687]?
induced reporter light, run 1, well a: 98720; induced reporter light, run 1, well b: 1.12e5; control promoter light, run 1, well a: 1.35e5; control promoter light, run 1, well b: 1.43e5; uninduced reporter light, run 1, well a: 9665; call: inactive

With ph-d (polyhomeotic distal) [DRSC18819], how do the results read?
induced reporter light, run 1, well a: 7510; induced reporter light, run 1, well b: 8365; control promoter light, run 1, well a: 17155; control promoter light, run 1, well b: 14875; uninduced reporter light, run 1, well a: 2825; call: inactive

How did the screen score mago (mago nashi) [DRSC04703]?
induced reporter light, run 1, well a: 14695; induced reporter light, run 1, well b: 26470; control promoter light, run 1, well a: 31910; control promoter light, run 1, well b: 20660; uninduced reporter light, run 1, well a: 1540; call: inactive

Which result is listed for CG33969 [DRSC11777]?
induced reporter light, run 1, well a: 1.39e5; induced reporter light, run 1, well b: 1.08e5; control promoter light, run 1, well a: 1.03e5; control promoter light, run 1, well b: 1.06e5; uninduced reporter light, run 1, well a: 8665; call: inactive

Which result is listed for CG10943 [DRSC09805]?
induced reporter light, run 1, well a: 1.54e5; induced reporter light, run 1, well b: 1.26e5; control promoter light, run 1, well a: 1.42e5; control promoter light, run 1, well b: 1.34e5; uninduced reporter light, run 1, well a: 6250; call: inactive

How did the screen score Ssrp (Structure specific recognition protein) [DRSC04658]?
induced reporter light, run 1, well a: 1.50e5; induced reporter light, run 1, well b: 1.50e5; control promoter light, run 1, well a: 1.06e5; control promoter light, run 1, well b: 1.26e5; uninduced reporter light, run 1, well a: 17945; call: active

With TBC1D16 (TBC1 domain family member 16) [DRSC02841], what does the deposit list?
induced reporter light, run 1, well a: 1.02e5; induced reporter light, run 1, well b: 1.19e5; control promoter light, run 1, well a: 68205; control promoter light, run 1, well b: 82985; uninduced reporter light, run 1, well a: 17905; call: inactive

With CG4239 [DRSC19885], what was measured?
induced reporter light, run 1, well a: 1.47e5; induced reporter light, run 1, well b: 1.61e5; control promoter light, run 1, well a: 2.64e5; control promoter light, run 1, well b: 2.41e5; uninduced reporter light, run 1, well a: 12900; call: inactive

For DCP2 (Decapping protein 2) [DRSC10597], what does the deposit list?
induced reporter light, run 1, well a: 1.15e5; induced reporter light, run 1, well b: 1.01e5; control promoter light, run 1, well a: 41225; control promoter light, run 1, well b: 45045; uninduced reporter light, run 1, well a: 7830; call: inactive

For CG14416 [DRSC18639], what was measured?
induced reporter light, run 1, well a: 1.11e5; induced reporter light, run 1, well b: 1.11e5; control promoter light, run 1, well a: 1.71e5; control promoter light, run 1, well b: 2.04e5; uninduced reporter light, run 1, well a: 10305; call: inactive

With CG13124 [DRSC02220], what does the deposit list?
induced reporter light, run 1, well a: 2.83e5; induced reporter light, run 1, well b: 2.87e5; control promoter light, run 1, well a: 1.96e5; control promoter light, run 1, well b: 2.17e5; uninduced reporter light, run 1, well a: 20415; call: inactive

How did the screen score CG14662 [DRSC12248]?
induced reporter light, run 1, well a: 1.17e5; induced reporter light, run 1, well b: 1.20e5; control promoter light, run 1, well a: 1.35e5; control promoter light, run 1, well b: 1.47e5; uninduced reporter light, run 1, well a: 9145; call: inactive

For narya [DRSC19439], how do the results read?
induced reporter light, run 1, well a: 1.26e5; induced reporter light, run 1, well b: 1.45e5; control promoter light, run 1, well a: 1.01e5; control promoter light, run 1, well b: 69785; uninduced reporter light, run 1, well a: 9410; call: inactive

With Cka (Connector of kinase to AP-1) [DRSC03476], how do the results read?
induced reporter light, run 1, well a: 1.33e5; induced reporter light, run 1, well b: 1.81e5; control promoter light, run 1, well a: 72370; control promoter light, run 1, well b: 90230; uninduced reporter light, run 1, well a: 18930; call: inactive

For blw (bellwether) [DRSC04675], what does the deposit list?
induced reporter light, run 1, well a: 90325; induced reporter light, run 1, well b: 78150; control promoter light, run 1, well a: 99705; control promoter light, run 1, well b: 95020; uninduced reporter light, run 1, well a: 5530; call: inactive
